Results reported in publication PMC12609382.
These are yes or no findings as the source states them, for the method shown. Binding seen in cells or lysates may run through a third protein. Some entries that bind do so weakly or less than the wild type. Tags and fused reporters may be left off the sequences shown.

Protein sequences, listed by entry. Tags and fused reporters are not part of them. Residues count along the entry.
GST-PRDM16-224-454 (zinc finger domain 1 of PRDM16) (A2A935, residues 224-454): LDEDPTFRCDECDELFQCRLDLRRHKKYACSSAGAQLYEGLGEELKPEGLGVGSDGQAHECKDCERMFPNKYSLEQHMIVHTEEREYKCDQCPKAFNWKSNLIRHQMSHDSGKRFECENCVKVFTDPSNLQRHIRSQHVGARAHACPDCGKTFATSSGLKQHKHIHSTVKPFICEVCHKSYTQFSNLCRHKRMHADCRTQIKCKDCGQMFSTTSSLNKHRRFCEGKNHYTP
GST-PRDM16-881-1038 (zinc finger domain 2 of PRDM16) (A2A935, residues 881-1038): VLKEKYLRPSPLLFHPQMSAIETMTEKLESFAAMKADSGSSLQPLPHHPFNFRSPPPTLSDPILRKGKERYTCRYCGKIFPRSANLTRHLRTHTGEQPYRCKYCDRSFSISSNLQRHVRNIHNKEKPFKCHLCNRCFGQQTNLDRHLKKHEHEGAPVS

Assays:
[1] = biological target: GST-PRDM16-881-1038 (zinc finger domain 2 of PRDM16) (UniProt A2A935); experiment: pull-down; GST-PRDM16 fragments on glutathione beads as bait; pre-cleared lysates of HEK293 cells expressing nuclear SREBPs (wild type or deletion mutants) as prey; 1 h at 4 °C; washes in buffer A and once in 0.5 M NaCl; Western blot; only the target purified
[2] = biological target: GST-PRDM16-224-454 (zinc finger domain 1 of PRDM16) (UniProt A2A935); experiment: as above

Row | binding [1] | binding [2] | Binder
1 | binds | binds | FLAG-SREBP1a-ΔC (nuclear SREBP1a without the C-terminal regulatory domain) (domain or fragment, UniProt P36956-1 2-417) DEPPFSEAALEQALGEPCDLDAALLTDIEDMLQLINNQDSDFPGLFDPPYAGSGAGGTDPASPDTSSPGSLSPPPATLSSSLEAFLSGPQAAPSPLSPPQPAPTPLKMYPSMPAFSPGPGIKEESVPLSILQTPTPQPLPGALLPQSFPAPAPPQFSSTPVLGYPSPPGGFSTGSPPGNTQQPLPGLPLASPPGVPPVSLHTQVQSVVPQQLLTVTAAPTAAPVTTTVTSQIQQVPVLLQPHFIKADSLLLTAMKTDGATVKAAGLSPLVSGTTVQTGPLPTLVSGGTILATVPLVVDAEKLPINRLAAGSKAPASAQSRGEKRTAHNAIEKRYRSSINDKIIELKDLVVGTEAKLNKSAVLRKAIDYIRFLQHSNQKLKQENLSLRTAVHKSKSLKDLVSACGSGGNTDVLMEGV
2 | binds | binds | FLAG-SREBP1a-ΔTAD (nuclear SREBP1a without the N-terminal transactivation domain) (domain or fragment, UniProt P36956-1 90-490) PQAAPSPLSPPQPAPTPLKMYPSMPAFSPGPGIKEESVPLSILQTPTPQPLPGALLPQSFPAPAPPQFSSTPVLGYPSPPGGFSTGSPPGNTQQPLPGLPLASPPGVPPVSLHTQVQSVVPQQLLTVTAAPTAAPVTTTVTSQIQQVPVLLQPHFIKADSLLLTAMKTDGATVKAAGLSPLVSGTTVQTGPLPTLVSGGTILATVPLVVDAEKLPINRLAAGSKAPASAQSRGEKRTAHNAIEKRYRSSINDKIIELKDLVVGTEAKLNKSAVLRKAIDYIRFLQHSNQKLKQENLSLRTAVHKSKSLKDLVSACGSGGNTDVLMEGVKTEVEDTLTPPPSDAGSPFQSSPLSLGSRGSGSGGSGSDSEPDSPVFEDSKAKPEQRPSLHSRGMLDRSRLAL
